Values of other authors in patent US20050250118A1 (priority 2003, published 2005).
For at least one compound, name, drawing or mass did not settle the structure.

How the values were obtained:
AD patients [1] = system: AD patients
AD patients [2] = conditions: patients with zero, one or two copies of the ApoE4 allele

COc1ccc2c3c1O[C@H]1C[C@@H](O)C=C[C@@]31CCN(C)C2 [galantamine]
efficacy in clinical trials as compared to placebo treatment (AD patients [1]): significant improvement in cognitive function and activities of daily living | efficacy of response by ApoE4 allele copy number (AD patients [2]): no significant difference in efficacy of response
